Read-outs that look alike come from different tables or passages of the source. Results are given in words; binding and its absence hold for the method and conditions named. In cells and extracts the contact can be indirect. A yes stands for co-enrichment or nearness to the bait. Other partners may have been found. For some of these results: No binding means not detected with the bait. For some of these results: Tags and fused reporters may be left off the sequences shown.
T1: GFP-DCP2 (Arabidopsis thaliana) (UniProt Q8GW31)
T1 sequence: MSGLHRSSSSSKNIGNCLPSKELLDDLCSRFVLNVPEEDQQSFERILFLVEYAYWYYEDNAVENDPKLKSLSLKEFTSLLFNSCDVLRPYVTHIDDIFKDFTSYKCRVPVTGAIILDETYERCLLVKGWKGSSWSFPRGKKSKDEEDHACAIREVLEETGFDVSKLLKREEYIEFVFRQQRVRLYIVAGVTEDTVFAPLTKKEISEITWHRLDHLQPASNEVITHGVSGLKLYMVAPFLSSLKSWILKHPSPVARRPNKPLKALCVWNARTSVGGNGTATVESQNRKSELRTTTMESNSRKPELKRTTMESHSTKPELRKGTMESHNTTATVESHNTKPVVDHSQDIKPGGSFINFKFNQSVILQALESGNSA

The chains behind the UniProt entries cited, without tags or fusion partners. Where a name states a change or a piece, a line headed by the entry shows the natural chain unless it says otherwise.
UniProt Q9SJF3: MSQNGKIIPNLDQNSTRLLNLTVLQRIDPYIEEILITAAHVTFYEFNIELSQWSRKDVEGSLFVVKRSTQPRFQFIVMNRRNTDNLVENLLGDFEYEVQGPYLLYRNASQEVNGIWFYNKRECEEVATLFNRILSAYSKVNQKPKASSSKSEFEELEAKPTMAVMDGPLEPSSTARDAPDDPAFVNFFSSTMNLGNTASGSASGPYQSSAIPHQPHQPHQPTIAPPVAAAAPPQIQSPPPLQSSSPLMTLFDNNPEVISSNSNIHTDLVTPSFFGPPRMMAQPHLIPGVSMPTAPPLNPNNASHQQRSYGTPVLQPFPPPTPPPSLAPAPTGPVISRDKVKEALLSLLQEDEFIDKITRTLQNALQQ
UniProt Q9M2F9: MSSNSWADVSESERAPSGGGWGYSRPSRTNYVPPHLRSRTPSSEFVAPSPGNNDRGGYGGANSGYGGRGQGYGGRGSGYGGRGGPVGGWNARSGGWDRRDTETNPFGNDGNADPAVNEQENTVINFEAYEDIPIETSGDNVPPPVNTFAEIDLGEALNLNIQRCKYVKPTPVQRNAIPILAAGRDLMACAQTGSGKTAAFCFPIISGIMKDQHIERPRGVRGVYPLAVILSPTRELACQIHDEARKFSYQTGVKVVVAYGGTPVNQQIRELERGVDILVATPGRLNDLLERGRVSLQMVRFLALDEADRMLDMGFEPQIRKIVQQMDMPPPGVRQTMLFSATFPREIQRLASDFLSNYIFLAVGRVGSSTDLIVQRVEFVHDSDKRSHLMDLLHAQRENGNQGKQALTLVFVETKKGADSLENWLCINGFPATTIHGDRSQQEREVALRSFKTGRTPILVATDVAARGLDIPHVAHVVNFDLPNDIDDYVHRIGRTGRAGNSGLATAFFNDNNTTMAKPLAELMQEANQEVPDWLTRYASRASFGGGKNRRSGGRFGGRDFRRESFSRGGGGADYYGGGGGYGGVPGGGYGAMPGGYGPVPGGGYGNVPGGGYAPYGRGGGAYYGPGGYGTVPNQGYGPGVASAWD


Assays:
Assay in all cases: affinity purification with mass spectrometry
[1] = molecular target: YFP-DCP1 (Arabidopsis thaliana) (UniProt Q9SJF3)
[2] = molecular target: T1, GFP-DCP2 (Arabidopsis thaliana)
[3] = molecular target: T1, GFP-DCP2 (Arabidopsis thaliana); remark: listed apart in the source
[4] = molecular target: GFP-DNE1 (Arabidopsis thaliana)
[5] = molecular target: GFP-DNE1 (Arabidopsis thaliana); remark: listed apart in the source

Molecule | binding [1] | binding [2] | binding [3] | binding [4] | binding [5]
RH52 (from UniProt Q9M2F9 1-646) | binds | – | – | – | –
DCP1-ASSOCIATED NYN ENDORIBONUCLEASE 1 (DNE1) | – | no binding | no binding | – | –
RH8 (protein, UniProt Q8RXK6 1-505) MNNRGRYPPGIGAGRGAFNPNPNYQSRSGYQQHPPPQYVQRGNYAQNHQQQFQQAPSQPHQYQQQQQQQQQWLRRGQIPGGNSNGDAVVEVEKTVQSEVIDPNSEDWKARLKLPAPDTRYRTEDVTATKGNEFEDYFLKRELLMGIYEKGFERPSPIQEESIPIALTGRDILARAKNGTGKTAAFCIPVLEKIDQDNNVIQAVIIVPTRELALQTSQVCKELGKHLKIQVMVTTGGTSLKDDIMRLYQPVHLLVGTPGRILDLTKKGVCVLKDCSVLVMDEADKLLSQEFQPSVEHLISFLPESRQILMFSATFPVTVKDFKDRFLTNPYVINLMDELTLKGITQFYAFVEERQKIHCLNTLFSKLQINQSIIFCNSVNRVELLAKKITELGYSCFYIHAKMLQDHRNRVFHDFRNGACRNLVCTDLFTRGIDIQAVNVVINFDFPKNAETYLHRVGRSGRFGHLGLAVNLITYEDRFNLYRIEQELGTEIKQIPPHIDQAIYCQ | binds | – | binds | – | –
VARICOSE (VCS) (protein, UniProt Q9LTT8 1-1344) MASSPGNTNPHNTPPFDLGILFKPSSNPYPPPAASYPPPTGPFLHNQYDQQHYAPPGISAQPSPVTQQQQDVSSSSAATNLHPQRTLSYPTPPLNLQSPRSNHNPGTHILALLNNTNNGAPVANQEPSHQLPVVNHNEIARSFPGGSGPIRVPSCKLPKGRRLIGEHAVYDVDVRLQGEIQPQLEVTPITKYGSDPQLVVGRQIAVNKVYICYGLKGGNIRVLNINTALRSLFRGHSQRVTDMAFFAEDVDMLASVSLDGKVFVWKISEGSEGEDQPQITGKIVLALQILGEEDTKHPRVCWHCHKQEILVVSIGKHVLRIDTTKVGRGEVFSAEAPLQCPLDKLIDGVQIVGKHDGEVTDLSMCQWMTTRLVSSSVDGTIKIWQDRKAQPLVVLRPHDGHPVSSATFVTSPERPDHIILITGGPLNREMKIWVSAGEEGWLLPADAESWRCTQTLDLKSSTEPRAEEAFFNQVIALSEAGLLLLANAKRNALYAVHLDYGSSPVGTRMDYLSEFTVTMPILSFIGTNDPPEEPIVKVYCVQTLAIQQYTLDLCLCLPPPIENMGLEKSDSSVSREANLVEGMSEPSGLKPTDLPSVDSVPKPSIIVNRSESANKLSFPSAEATSQAIVPPNGEPKTSGLPSQTSGAGSAYATLPQLPLSPRLSSKLSGYHTPVEAIEPVIPHHELGGKTPSADYSVDRQMDAVGERNLDVSSVEEISRSKDSNVTPDDDVSGMRSPSAFFKHPTHLVTPSEILMGVSSAEASITTEDRRDRDANIQDVNNDPRDTEVEVKEISEARSTQNGEINDHDETENCTSENREKVFCSQVSNLSTEMARDCYPSTEGTFIPGESKAYGQPIKAGDESGVDSRGGPAKLLKGKKQKAKNSQGPGLSSTSSNVANLADSFNEQSQSLSHPMTDLLPQLLAMQETMNQVMASQKEMQRQLSNAATGPIGKESKRLEVALGRMIEKSSKSNADALWARIQEETVKNEKALRDHAQQIVNATTNFMSKELNAMFEKTIKKELAAIGPALARSVVPVIEKTVSSAITESFQRGIGDKAVNQLDKSVNIKLEATVARQIQAQFQTSGKQALQEGLRSSVESSVIPSFEKACKAMFDQIDSAFQKGIAEHTNAAQQRFDSGHSQLAHTLKESITSASSVAQALSRELAETQRNLLALAAAGANSGGSNSLVTQLSGGPLGALLEKVEAPMDPTTELSRLISERKYEESFTSALQRSDVSIVSWLCSQVDLRGLLAMNPLPLSQGVLLSLLQQLACDISKDTSRKLAWMTDVVAAINPSDQMIAVHARPIFEQVYQILHHHRNAPGSDVSAIRLIMHVINSMLMGCK | binds | – | binds | binds | –
UPF1 (protein, UniProt Q9FJR0 1-1254) MDSQQSDLFDTASQPDTVADEYTFLEFNTQGDSEFDYQDFGSPTAWPTPSDSISIADVADRGEGGAAADHHSEASSPSSLSAGAGNGAKVGRGGVGGSGGVSSSSQVDALAAGVGNLNFEETGDDDGFDYGKNDFTEHACKYCGISNPACVVRCNVASCRKWFCNSRGNTSGSHIVNHLVRAKHKEVCLHRDSPLGETILECYNCGCRNVFLLGFISAKTDSVVVLLCRDPCLNVNALKDMNWDLSQWCPLIDDRCFLPWLVKVPSEQEQLRARQISAQQINKIEELWKTNPDATLEDLEKPGVDDEPQPVQPKYEDAYQYQNVFAPLIKLEADYDKMMKESQSKENLTVRWDIGLNKKRVAYFVFPKEENELRLVPGDELRLRYSGDAVHPSWQSVGHVIKLTAQEEVALELRANQGVPIDVNHGFSVDFVWKSTSFDRMQGAMKNFAVDETSVSGYIYHQLLGHEVEAQMVRNTLPRRFGVPGLPELNASQVNAVKSVLQKPISLIQGPPGTGKTVTSAAIVYHMAKQGQGQVLVCAPSNVAVDQLAEKISATGLKVVRLCAKSREAVSSPVEYLTLHYQVRHLDTSEKSELHKLQQLKDEQGELSSSDEKKYKNLKRATEREITQSADVICCTCVGAADLRLSNFRFRQVLIDESTQATEPECLIPLVLGVKQVVLVGDHCQLGPVIMCKKAARAGLAQSLFERLVTLGIKPIRLQVQYRMHPALSEFPSNSFYEGTLQNGVTIIERQTTGIDFPWPVPNRPMFFYVQLGQEEISASGTSYLNRTEAANVEKLVTAFLKSGVVPSQIGVITPYEGQRAYIVNYMARNGSLRQQLYKEIEVASVDSFQGREKDYIILSCVRSNEHQGIGFLNDPRRLNVALTRARYGIVILGNPKVLSKQPLWNGLLTHYKEHECLVEGPLNNLKQSMVQFQKPRKIYNDRRLFYGGGAGMIGNDNFGSGNPNADRRGSRGRAGGSYLPSGPPNGARPGLHPAGYPIPRVPLSPFPGGPPSQPYAIPTRGPVGAVPHAPQPGNHGFGAGRGTSVGGHLPHQQATQHNVGTIGPSLNFPLDSPNSQPSPGGPLSQPGYGSQAFRDGFSMGGISQDFLADDIKSQGSHDPYNMADFATQASPGGFAVDYATQGAHGAFPGNFMNQNSQGGYSRFSGINDFMSQEYMAHGGQGLFTQAGFIDSSQDDGQQNPYGVNNPNLQSQGLPNSLYSQPFAHYNTQPLNLSGPQQSQPNQSSQNPKHPYNG | – | – | binds | binds | binds
PAT1 (protein, UniProt Q0WPK4 1-793) MDAFGIGSSLNQAPVTQDLKKFGDNSTGNTMFDASQYAFFGNDVVEEVELGGLEEEDEILSFTGIAEDFSFDKEEVGDSRLLSDVDDLASTFSKLNREPDVYSNTGPITDRRSSQNSLAAEWTHGEELPNWYGRQILDSDAIKDDKVWSAQPFSSLDRVEQRIPDRTKLYPEPQRQLHQDHNQQQFSSEPILVPKSSFVSYPPPGSISPDQRLGHPNIPYQSGGPQMGSPNFSPFPNLQPQLPSMHHGSPQHTGNRPQFRPALPLNNLPPAQWMNRQNMHPGDSSGIMNNAMLQQPPHQNGLMPPQMQGSQNRLPHPMQPPLGHMPGMQPQLFNSHLSRSSSSGNYDGMLGFGDLREVRPGSGHGNRQNVRFPQQGFDAGVQRRYPFRSKYMSAGEIENILRMQLVATHSNDPYVDDYYHQACLAKKSAGAKLKHHFCPNHLRDLQQRARSNNEPHAFLQVEALGRVPFSSIRRPRPLLEVDPPNSAKFGNAEHKPTDKPLDQEPMLAARVYIEDGLCLLLEVDDIDRFLEFNQLQDGGHQLKQRRQALLQSLAVSLQLGDPLAKNGQSQSLDDFLFLRVISLPKGRKLLIRYLQLIFPGSDLMRIVCMAIFRHLRSLFGVLSSDPDIIKTTNKLATVINLCIQNMELGPVSTCLAAVSCSSEQAPLRPLGSPVGDGASTVLKSILDRASELIRANNFNNAGIALWRASFNEFFNMLMRYCISKYDSIMQSLQLPPHFATEISEEAAKAIVREMPIELLRSSFPHIDEQQKRILMEFLKRSMLGSQKTEPVLS | – | – | binds | – | –

More lines, now with the values ahead:

binding [1] | binding [2] | binding [3] | binding [4] | binding [5] | Molecule
binds | – | binds | – | – | RH12 (protein, UniProt Q9M2E0 1-498) MNTNRGRYPPGVGTGRGAPPNPDYHQSYRQQQPPQDQQYVQRGYSQNPQQMQLQQQHQQQQQQQQWSRRPQLPGNASNANEVVQQTTQPEASSDANGQDWKATLRLPPPDTRYQTADVTATKGNEFEDYFLKRDLLKGIYEKGFEKPSPIQEESIPIALTGSDILARAKNGTGKTGAFCIPVLEKIDPNNNVIQAMILVPTRELALQTSQVCKELSKYLNIQVMVTTGGTSLRDDIMRLHQPVHLLVGTPGRILDLTKKGVCVLKDCAMLVMDEADKLLSAEFQPSLEELIQFLPQNRQFLMFSATFPVTVKAFKDRHLRKPYVINLMDQLTLMGVTQYYAFVEERQKVHCLNTLFSKLQINQSIIFCNSVNRVELLAKKITELGYSCFYIHAKMVQDHRNRVFHEFRNGACRNLVCTDLFTRGIDIQAVNVVINFDFPRTSESYLHRVGRSGRFGHLGLAVNLVTYEDRFKMYQTEQELGTEIKPIPSNIDQAIYCQ
binds | – | binds | – | – | RH6 (protein, UniProt Q94BV4 1-528) MNNNNNNRGRFPPGIGAAGPGPDPNFQSRNPNPPQPQQYLQSRTPFPQQPQPQPPQYLQSQSDAQQYVQRGYPQQIQQQQQLQQQQQQQQQQQEQQWSRRAQLPGDPSYIDEVEKTVQSEAISDSNNEDWKATLKLPPRDNRYQTEDVTATKGNEFEDYFLKRDLLRGIYEKGFEKPSPIQEESIPIALTGSDILARAKNGTGKTGAFCIPTLEKIDPENNVIQAVILVPTRELALQTSQVCKELSKYLKIEVMVTTGGTSLRDDIMRLYQPVHLLVGTPGRILDLAKKGVCVLKDCAMLVMDEADKLLSVEFQPSIEELIQFLPESRQILMFSATFPVTVKSFKDRYLKKPYIINLMDQLTLMGVTQYYAFVEERQKVHCLNTLFSKLQINQSIIFCNSVNRVELLAKKITELGYSCFYIHAKMVQDHRNRVFHDFRNGACRNLVCTDLFTRGIDIQAVNVVINFDFPRTSESYLHRVGRSGRFGHLGLAVNLVTYEDRFKMYQTEQELGTEIKPIPSLIDKAIYCQ

From doi:10.1101/2021.10.01.462782
